SMILES strings stand for the structures. This is one part of the list. Repeats are few or missing, and single values can be far off.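 Cells were imaged in 1,536-well plates, and nuclei stained with an antibody against cleaved PARP were counted against all DNA-stained nuclei to give the apoptosis fraction. Screening doses were chosen to leave most cells alive, and resting and induced cleaved-PARP levels differ strongly between cell lines.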

The assay concerns COLO829. Kind of assay: cleaved PARP positive nuclei fraction relative to DMSO control; melanoma cells; higher = more apoptosis. The settings on record: library dose: low library concentration; 72 h.
Turning to `C[C@@H]1CCN(C(=O)CC#N)C[C@@H]1N(C)c1ncnc2[nH]ccc12` + O=C(Oc1ccc([N+](=O)[O-])cc1)N1CCC(C(O)(c2ccc3c(c2)OCO3)c2ccc3c(c2)OCO3)CC1 [JZL184] (first compound 1 µM, partner dose 1 µM), the “cleaved PARP positive nuclei fraction” value was 63.9%.
The same measure for `C[As](C)SC[C@H](NC(=O)CC[C@H](N)C(=O)O)C(=O)NCC(=O)O` [Darinaparsin] + C/C(O)=C(\C#N)C(=O)Nc1cc(Br)ccc1Br [LFM-A13] (first compound 0.4 µM, partner dose 2 µM): 90.9%; for `Cn1c(=O)n(-c2ccc(C(C)(C)C#N)cc2)c2c3cc(-c4cnc5ccccc5c4)ccc3ncc21` + N.N.[Cl][Pt][Cl] [cisplatin] (first compound 0.004 µM, partner dose 1.6 µM): 191%; for `CC(=O)O[C@@]12CO[C@@H]1C[C@H](O)[C@@]1(C)C(=O)[C@H](O)C3=C(C)[C@@H](OC(=O)[C@H](O)[C@@H](NC(=O)OC(C)(C)C)c4ccccc4)C[C@@](O)([C@@H](OC(=O)c4ccccc4)[C@H]21)C3(C)C` [Docetaxel] + C[As](C)SC[C@H](NC(=O)CC[C@H](N)C(=O)O)C(=O)NCC(=O)O [Darinaparsin] (first compound 0.0001 µM, partner dose 0.4 µM): 289%.
The same measure for `C[C@]12O[C@H](C[C@]1(O)CO)n1c3ccccc3c3c4c(c5c6ccccc6n2c5c31)CNC4=O` [Lestaurtinib] + Cn1c(Nc2ccc(C(F)(F)F)cc2)nc2cc(Oc3ccnc(-c4ncc(C(F)(F)F)[nH]4)c3)ccc21 [CHIR265] (first compound 0.004 µM, partner dose 0.08 µM): 102%; for `Cn1cc(C2=C(c3cn(C4CCN(Cc5ccccn5)CC4)c4ccccc34)C(=O)NC2=O)c2ccccc21` [Enzastaurin] + Cc1cc(Nc2cc(N3CCN(C)CC3)nc(/C=C/c3ccccc3)n2)n[nH]1 [ENMD2076] (first compound 0.8 µM, partner dose 0.04 µM): 127%; for `Cc1cc(Nc2cc(N3CCN(C)CC3)nc(Sc3ccc(NC(=O)C4CC4)cc3)n2)n[nH]1` [Tozasertib] + N.N.[Cl][Pt][Cl] [cisplatin] (first compound 0.006 µM, partner dose 1.6 µM): 145%.
The same measure for `C[C@]12O[C@H](C[C@]1(O)CO)n1c3ccccc3c3c4c(c5c6ccccc6n2c5c31)CNC4=O` [Lestaurtinib] + C[C@@H](Oc1cc(-c2cnn(C3CCNCC3)c2)cnc1N)c1c(Cl)ccc(F)c1Cl [Crizotinib] (first compound 0.004 µM, partner dose 0.2 µM): 61.9%; for `N.N.[Cl][Pt][Cl]` [cisplatin] + Clc1ccc(Nc2nnc(Cc3ccncc3)c3ccccc23)cc1 [vatalanib] (first compound 1.6 µM, partner dose 2 µM): 78.7%; for `O=c1[nH]nc(Sc2ncc([N+](=O)[O-])s2)n1-c1ccc2c(c1)OCCO2` + C[C@]12O[C@H](C[C@]1(O)CO)n1c3ccccc3c3c4c(c5c6ccccc6n2c5c31)CNC4=O [Lestaurtinib] (first compound 0.2 µM, partner dose 0.004 µM): 47.8%.
Take `COc1cc([C@@H]2c3cc4c(cc3[C@@H](O[C@@H]3O[C@@H]5CO[C@@H](C)O[C@H]5[C@H](O)[C@H]3O)[C@H]3COC(=O)[C@H]23)OCO4)cc(OC)c1O` [etoposide] + N.N.[Cl][Pt][Cl] [cisplatin] (first compound 0.02 µM, partner dose 1.6 µM): the “cleaved PARP positive nuclei fraction” value was 151%.
The same measure for `C[C@]12O[C@H](C[C@]1(O)CO)n1c3ccccc3c3c4c(c5c6ccccc6n2c5c31)CNC4=O` [Lestaurtinib] + C[As](C)SC[C@H](NC(=O)CC[C@H](N)C(=O)O)C(=O)NCC(=O)O [Darinaparsin] (first compound 0.004 µM, partner dose 0.4 µM): 105%; for `COc1ccc(COc2ccc(Cc3cnc(N)nc3N)cc2OC)cc1` + O=C(Oc1ccc([N+](=O)[O-])cc1)N1CCC(C(O)(c2ccc3c(c2)OCO3)c2ccc3c(c2)OCO3)CC1 [JZL184] (first compound 1 µM, partner dose 1 µM): 97.8%; for `Cn1cc(C2=C(c3cn(C4CCN(Cc5ccccn5)CC4)c4ccccc34)C(=O)NC2=O)c2ccccc21` [Enzastaurin] + NC1(c2ccc(-c3nc4ccn5c(=O)[nH]nc5c4cc3-c3ccccc3)cc2)CCC1 [MK2206] (first compound 0.8 µM, partner dose 0.4 µM): 89.1%.

The values are drawn from the supplement of paper PMC4604168 (melanoma cell lines).
